# Measured values as given in the supplement of paper PMC8728848.
# This is one part of the list.
# Columns and labels:
# Experiment in all cases: glycan array binding signal (z-score within array); higher = stronger binding
# Conditions in all cases: glycan notation: IUPAC condensed, linker removed
# [1] = molecular target: Neu5Ac(a2-3)GalNAc
# Outline: (§1)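 Arrays were curated from the Consortium for Functional Glycomics database, 3228 in total, and kept only where the protein sequence was available. Binding is expressed as a within-array Z-score. This score was averaged across arrays of the same protein sequence at different concentrations or buffers and across linkers, and negative values can be read as non-binding.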
# [2] = molecular target: Neu5Ac(a2-3)GalNAc(b1-4)GlcNAc
# Outline: as §1
# [3] = molecular target: Neu5Ac(a2-3)[GalNAc(b1-4)]Gal(b1-4)Glc
# Outline: as §1
# [4] = molecular target: Neu5Ac(a2-3)[GalNAc(b1-4)]Gal(b1-4)GlcNAc
# Outline: as §1
# [5] = molecular target: Neu5Ac(a2-3)[GalNAc(b1-4)]Gal(b1-4)GlcNAc(b1-3)GalNAc
# Outline: as §1
# [6] = molecular target: Neu5Ac(a2-3)[Neu5Ac(a2-6)]GalNAc
# Outline: as §1
# [7] = molecular target: Neu5Ac(a2-6)Gal
# Outline: as §1
# [8] = molecular target: Neu5Ac(a2-6)Gal(b1-3)GlcNAc(b1-3)[Gal(b1-4)GlcNAc(b1-6)]Gal(b1-4)Glc
# Outline: as §1
# [9] = molecular target: Neu5Ac(a2-6)Gal(b1-4)Glc
# Outline: as §1
# [10] = molecular target: Neu5Ac(a2-6)Gal(b1-4)GlcNAc
# Outline: as §1
# [11] = molecular target: Neu5Ac(a2-6)Gal(b1-4)GlcNAc(b1-2)Man
# Outline: as §1
# [12] = molecular target: Neu5Ac(a2-6)Gal(b1-4)GlcNAc(b1-2)Man(a1-3)Man(b1-4)GlcNAc(b1-4)GlcNAc
# Outline: as §1
# [13] = molecular target: Neu5Ac(a2-6)Gal(b1-4)GlcNAc(b1-2)Man(a1-3)[Gal(b1-4)GlcNAc(b1-2)Man(a1-6)]Man(b1-4)GlcNAc(b1-4)GlcNAc
# Outline: as §1
# [14] = molecular target: Neu5Ac(a2-6)Gal(b1-4)GlcNAc(b1-2)Man(a1-3)[GlcNAc(b1-2)Man(a1-6)]Man(b1-4)GlcNAc(b1-4)GlcNAc
# Outline: as §1
# [15] = molecular target: Neu5Ac(a2-6)Gal(b1-4)GlcNAc(b1-2)Man(a1-3)[GlcNAc(b1-4)][Neu5Ac(a2-6)Gal(b1-4)GlcNAc(b1-2)Man(a1-6)]Man(b1-4)GlcNAc(b1-4)GlcNAc
# Outline: as §1
# [16] = molecular target: Neu5Ac(a2-6)Gal(b1-4)GlcNAc(b1-2)Man(a1-3)[Man(a1-6)]Man(b1-4)GlcNAc(b1-4)GlcNAc
# Outline: as §1
# [17] = molecular target: Neu5Ac(a2-6)Gal(b1-4)GlcNAc(b1-2)Man(a1-3)[Neu5Ac(a2-3)Gal(b1-4)GlcNAc(b1-2)Man(a1-6)]Man(b1-4)GlcNAc(b1-4)GlcNAc
# Outline: as §1
# [18] = molecular target: Neu5Ac(a2-6)Gal(b1-4)GlcNAc(b1-2)Man(a1-3)[Neu5Ac(a2-6)Gal(b1-4)GlcNAc(b1-2)Man(a1-6)]Man(b1-4)GlcNAc(b1-4)GlcNAc
# Outline: as §1
# [19] = molecular target: Neu5Ac(a2-6)Gal(b1-4)GlcNAc(b1-2)Man(a1-3)[Neu5Ac(a2-6)Gal(b1-4)GlcNAc(b1-2)Man(a1-6)]Man(b1-4)GlcNAc(b1-4)[Fuc(a1-6)]GlcNAc
# Outline: as §1
# [20] = molecular target: Neu5Ac(a2-6)Gal(b1-4)GlcNAc(b1-2)Man(a1-6)Man(b1-4)GlcNAc(b1-4)GlcNAc
# Outline: as §1
# [21] = molecular target: Neu5Ac(a2-6)Gal(b1-4)GlcNAc(b1-2)Man(a1-6)[Gal(b1-4)GlcNAc(b1-2)Man(a1-3)]Man(b1-4)GlcNAc(b1-4)GlcNAc
# Outline: as §1
# [22] = molecular target: Neu5Ac(a2-6)Gal(b1-4)GlcNAc(b1-2)Man(a1-6)[GlcNAc(b1-2)Man(a1-3)]Man(b1-4)GlcNAc(b1-4)GlcNAc
# Outline: as §1
# [23] = molecular target: Neu5Ac(a2-6)Gal(b1-4)GlcNAc(b1-2)Man(a1-6)[Man(a1-3)]Man(b1-4)GlcNAc(b1-4)GlcNAc
# Outline: as §1
# [24] = molecular target: Neu5Ac(a2-6)Gal(b1-4)GlcNAc(b1-2)[Neu5Ac(a2-6)Gal(b1-4)GlcNAc(b1-4)]Man(a1-3)[GlcNAc(b1-4)][Neu5Ac(a2-6)Gal(b1-4)GlcNAc(b1-2)[Neu5Ac(a2-6)Gal(b1-4)GlcNAc(b1-6)]Man(a1-6)]Man(b1-4)GlcNAc(b1-4)GlcNAc
# Outline: as §1
# [25] = molecular target: Neu5Ac(a2-6)Gal(b1-4)GlcNAc(b1-2)[Neu5Ac(a2-6)Gal(b1-4)GlcNAc(b1-4)]Man(a1-3)[GlcNAc(b1-4)][Neu5Ac(a2-6)Gal(b1-4)GlcNAc(b1-4)Man(a1-6)]Man(b1-4)GlcNAc(b1-4)GlcNAc
# Outline: as §1
# [26] = molecular target: Neu5Ac(a2-6)Gal(b1-4)GlcNAc(b1-2)[Neu5Ac(a2-6)Gal(b1-4)GlcNAc(b1-6)]Man(a1-6)[Neu5Ac(a2-6)Gal(b1-4)GlcNAc(b1-2)Man(a1-3)][GlcNAc(b1-4)]Man(b1-4)GlcNAc(b1-4)GlcNAc
# Outline: as §1
# [27] = molecular target: Neu5Ac(a2-6)Gal(b1-4)GlcNAc(b1-3)Gal(b1-3)GlcNAc
# Outline: as §1
# [28] = molecular target: Neu5Ac(a2-6)Gal(b1-4)GlcNAc(b1-3)Gal(b1-4)GlcNAc
# Outline: as §1
# [29] = molecular target: Neu5Ac(a2-6)Gal(b1-4)GlcNAc(b1-3)Gal(b1-4)GlcNAc(b1-2)Man(a1-3)[Neu5Ac(a2-6)Gal(b1-4)GlcNAc(b1-3)Gal(b1-4)GlcNAc(b1-2)Man(a1-6)]GalNAc
# Outline: as §1
# [30] = molecular target: Neu5Ac(a2-6)Gal(b1-4)GlcNAc(b1-3)Gal(b1-4)GlcNAc(b1-3)Gal(b1-4)GlcNAc
# Outline: as §1
# [31] = molecular target: Neu5Ac(a2-6)Gal(b1-4)GlcNAc(b1-3)Gal(b1-4)GlcNAc(b1-3)Gal(b1-4)GlcNAc(b1-2)Man(a1-3)[Neu5Ac(a2-6)Gal(b1-4)GlcNAc(b1-3)Gal(b1-4)GlcNAc(b1-3)Gal(b1-4)GlcNAc(b1-2)Man(a1-6)]GalNAc
# Outline: as §1
# [32] = molecular target: Neu5Ac(a2-6)Gal(b1-4)GlcNAc(b1-3)Gal(b1-4)GlcNAc(b1-3)GalNAc
# Outline: as §1
# [33] = molecular target: Neu5Ac(a2-6)Gal(b1-4)GlcNAc(b1-3)Gal(b1-4)GlcNAc(b1-3)[Neu5Ac(a2-6)Gal(b1-4)GlcNAc(b1-3)Gal(b1-4)GlcNAc(b1-6)]GalNAc
# Outline: as §1
# [34] = molecular target: Neu5Ac(a2-6)Gal(b1-4)GlcNAc(b1-3)Gal(b1-4)GlcNAc(b1-6)[Gal(b1-3)]GalNAc
# Outline: as §1
# [35] = molecular target: Neu5Ac(a2-6)Gal(b1-4)GlcNAc(b1-3)Gal(b1-4)[Fuc(a1-3)]GlcNAc(b1-3)Gal(b1-4)[Fuc(a1-3)]GlcNAc
# Outline: as §1
# [36] = molecular target: Neu5Ac(a2-6)Gal(b1-4)GlcNAc(b1-3)GalNAc
# Outline: as §1
# [37] = molecular target: Neu5Ac(a2-6)Gal(b1-4)GlcNAc(b1-3)[Neu5Ac(a2-6)Gal(b1-4)GlcNAc(b1-6)]GalNAc
# Outline: as §1
# [38] = molecular target: Neu5Ac(a2-6)Gal(b1-4)GlcNAc(b1-6)GalNAc
# Outline: as §1
binder,measurement,setting,value
"Tp0751, 83732 (protein) MSYYHHHHHHLESTSLYKKAGFQHGHVPPRRIPPHDTFGALPTAALPSNARDTAAHPSDTADNTSGSSTTTDPRSHGNAPPAPVGGAAQTHTQPPVQTAMRIALWNRATHGEQGALQHLLAGLWIQTEISPNSGDIHPLLFFDREHAEITFSRASVQEIFLVDSAHTHRKTVSFLTRNTAISSIRRRLEVTFESHEVIHVRAVEDVARLKIGSTSMWDGQYTRYHAGPASAPSP",glycan array binding signal (z-score),[1],-0.304
same,glycan array binding signal (z-score),[2],0.045
same,glycan array binding signal (z-score),[3],-0.492
same,glycan array binding signal (z-score),[4],-0.76
same,glycan array binding signal (z-score),[5],0.098
same,glycan array binding signal (z-score),[6],-0.574
same,glycan array binding signal (z-score),[7],0.399
same,glycan array binding signal (z-score),[8],-0.484
same,glycan array binding signal (z-score),[9],-0.353
same,glycan array binding signal (z-score),[10],-0.264
same,glycan array binding signal (z-score),[11],-0.306
same,glycan array binding signal (z-score),[12],-0.564
same,glycan array binding signal (z-score),[13],-0.426
same,glycan array binding signal (z-score),[14],-0.38
same,glycan array binding signal (z-score),[15],-0.305
same,glycan array binding signal (z-score),[16],-0.358
same,glycan array binding signal (z-score),[17],0.233
same,glycan array binding signal (z-score),[18],-0.21
same,glycan array binding signal (z-score),[19],-0.728
same,glycan array binding signal (z-score),[20],0.136
same,glycan array binding signal (z-score),[21],-0.478
same,glycan array binding signal (z-score),[22],-0.321
same,glycan array binding signal (z-score),[23],0.195
same,glycan array binding signal (z-score),[24],-0.463
same,glycan array binding signal (z-score),[25],-0.371
same,glycan array binding signal (z-score),[26],0.005
same,glycan array binding signal (z-score),[27],0.187
same,glycan array binding signal (z-score),[28],0.086
same,glycan array binding signal (z-score),[29],0.498
same,glycan array binding signal (z-score),[30],-0.558
same,glycan array binding signal (z-score),[31],0.794
same,glycan array binding signal (z-score),[32],-0.172
same,glycan array binding signal (z-score),[33],0.297
same,glycan array binding signal (z-score),[34],-0.341
same,glycan array binding signal (z-score),[35],-0.049
same,glycan array binding signal (z-score),[36],0.562
same,glycan array binding signal (z-score),[37],0.221
same,glycan array binding signal (z-score),[38],0.605
